Reference: patent publication US10633448B2 (PIERRE FABRE MEDICAMENT, priority 2014, dated 2020)

Assay: general procedure: solution-phase peptide synthesis; DEPC/DIEA; HATU/DIEA
Details: trifluoroacetic acid; for conjugation yield: conjugation step

With “methyl ((2R,3R)-3-((S)-1-((3R,4S,5S)-4-((S)-2-((S)-2-((4-((((4-((S)-2-((S)-2-(6-(2,5-dioxo-2,5-dihydro-1H-pyrrol-1-yl)hexanamido)-3-methylbutanamido)-5-ureidopentanamido)benzyl)oxy)carbonyl)(methyl)amino)phenethyl)(methyl)amino)-3-methylbutanamido)-N,3-dimethylbutanamido)-3-methoxy-5-methylheptanoyl)pyrrolidin-2-yl)-3-methoxy-2-methylpropanoyl)-L-phenylalaninate 2,2,2-trifluoroacetate” the conjugation yield was 70%.

For “methyl ((2R,3R)-3-((S)-1-((3R,4S,5S)-4-((S)-2-((S)-2-((4-((S)-2-((S)-2-(6-(2,5-dioxo-2,5-dihydro-1H-pyrrol-1-yl)hexanamido)-3-methylbutanamido)-5-ureidopentanamido)phenethyl)(methyl)amino)-3-methylbutanamido)-N,3-dimethylbutanamido)-3-methoxy-5-methylheptanoyl)pyrrolidin-2-yl)-3-methoxy-2-methylpropanoyl)-L-phenylalaninate 2,2,2-trifluoroacetate”, the conjugation yield was 13%.

Work on “methyl (S)-2-((2R,3R)-3-((S)-1-((3R,4S,5S)-4-((S)-2-((((9H-fluoren-9-yl)methoxy)carbonyl)amino)-N,3-dimethylbutanamido)-3-methoxy-5-methylheptanoyl)pyrrolidin-2-yl)-3-methoxy-2-methyl propanamido)-3-phenylpropanoate” yielded a step yield (coupling step) of 34%.

In the case of “methyl (S)-2-((2R,3R)-3-((S)-1-((3R,4S,5S)-4-((S)-2-((S)-2-((3-aminobenzyl)(methyl)amino)-3-methylbutanamido)-N,3-dimethylbutanamido)-3-methoxy-5-methylheptanoyl)pyrrolidin-2-yl)-3-methoxy-2-methylpropanamido)-3-phenylpropanoate”, the “final HPLC purity” value (late stage modification step, 210 nm) was 91.1% and the step yield (late stage modification step) was 19%.

For “methyl (S)-2-((2R,3R)-3-((S)-1-((3R,4S,5S)-4-((S)-2-((S)-2-((3-aminopropyl)(methyl)amino)-3-methylbutanamido)-N,3-dimethylbutanamido)-3-methoxy-5-methylheptanoyl)pyrrolidin-2-yl)-3-methoxy-2-methylpropanamido)-3-phenylpropanoate”, the “final HPLC purity” value (coupling step, 210 nm) was 91.5% and the step yield (coupling step, over 2 steps from 3D) was 26%, yield in 2 steps.

“methyl (S)-2-((2R,3R)-3-((S)-1-((3R,4S,5S)-4-((S)-2-amino-N,3-dimethylbutanamido)-3-methoxy-5-methylheptanoyl)pyrrolidin-2-yl)-3-methoxy-2-methylpropanamido)-3-phenylpropanoate” gave a step yield (late stage modification step) of 81%.

With “methyl (S)-2-((2R,3R)-3-((S)-1-((3R,4S,5S)-4-((S)—N,3-dimethyl-2-((S)-3-methyl-2-(methyl(4-(methylamino)phenethyl)amino)butanamido)butanamido)-3-methoxy-5-methylheptanoyl)pyrrolidin-2-yl)-3-methoxy-2-methylpropanamido)-3-phenylpropanoate” the “final HPLC purity” value (coupling step, 254 nm) was 90.6% and the step yield (coupling step, two steps from 3D) was 7%.
